Data taken from the supplement of paper PMC3334620.
The full ranking holds about 33,000 sequences; the median of “E-score (-0.5 to 0.5)” is about -0.0034, and the highest 2% start at about 0.25. This is one part of the list.

biological target: T1, Yap3 (UniProt P38749); test: PBM E-score (8-mer binding enrichment) (E-score (-0.5 to 0.5)); higher = stronger / more preferred TF binding; conditions: protein concentration: 100 nM; construct: GST-full length
T1 sequence: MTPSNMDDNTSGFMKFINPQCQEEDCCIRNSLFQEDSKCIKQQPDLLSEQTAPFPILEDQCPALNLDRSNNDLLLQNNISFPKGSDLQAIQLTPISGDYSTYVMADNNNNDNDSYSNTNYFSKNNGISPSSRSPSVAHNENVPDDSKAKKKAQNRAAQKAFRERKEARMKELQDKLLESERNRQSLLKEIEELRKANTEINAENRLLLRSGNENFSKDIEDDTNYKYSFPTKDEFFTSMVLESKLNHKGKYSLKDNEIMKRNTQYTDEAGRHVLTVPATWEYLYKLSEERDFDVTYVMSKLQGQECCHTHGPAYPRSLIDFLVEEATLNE
Summary of the method: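 For each ungapped eight-base word taken together with its reverse complement, the Universal PBM Analysis Suite assigned an E-score. Binding data came from GST-tagged yeast transcription factors, applied at about 100-200 nM, on universal all-10-mer Agilent arrays made double-stranded by primer extension. Fluorescent anti-GST marked bound protein, and scans were normalised with masliner.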

Sequence	PBM E-score
CATTCACA	0.163
CATGTTTA	0.062
CCGGCAAA	-0.0508
ACACCATC	0.0118
AGCACAAT	0.075
GTAATAAA	0.266
GTCAGTTA	0.113
CATGTGGG	0.0506
AACGGTTC	-0.139
CACAGTGA	0.107
ACCTGTTC	0.0586
AAAGACAA	0.261
ACCGACGT	-0.0126
GCACGTTA	0.0328
ATCTACTG	0.165
GTTGTTGA	0.216
CGCTTTAG	0.0403
GATTTGTA	0.22
TAGAAATA	0.187
TGGTCGAA	-0.253
AGTGAACA	0.0855
AGAATGCC	-0.00977
ACGGCCGA	0.105
CAGCGTCG	-0.112
CCAGAGCC	-0.0868

Sequence	PBM E-score
CGCTTCTC	0.0685
GACTAATA	0.326
ATGTAAGG	0.129
ACGGATAG	0.176
GGAACTGA	-0.29
CAAACCCG	-0.13
AGTTAGCC	-0.00915
ACCTGTCC	-0.0992
CTGGCCAC	-0.00813
GATCTATA	-0.0784
CCATATGC	0.00556
CGCTGGCA	-0.0684
CAGCATCG	-0.185
AGGGATTC	-0.0816
CCTATTAG	-0.00489
CCCCATAA	0.00096
GAAATGAC	0.259
AATATGCG	0.0969
AATTTTGC	0.0763
AAGCCCTG	-0.264
CCCATTCG	-0.0108
GCCGGAGC	-0.281
CCACTATA	0.132
GTTTCCGA	0.105
GCAGGACC	-0.163

Sequence	PBM E-score
CTTCTCGA	0.0974
CTAAACGA	-0.0241
AACGCCGG	-0.126
AAGTGTGT	0.0034
GGAAAGGA	-0.152
GACCTAAC	0.0581
CGAGGACA	0.0269
AGTCTGAT	-0.113
GAGACACC	-0.196
GGCTTCAC	-0.172
GCCGATGA	-0.102
ATGCCCAA	-0.00275
ACGCGATC	0.185
CATATAGA	0.0587
ATCTGGTG	0.0119
AGCTGCTG	-0.158
ATGTTGTA	0.231
ACTGAAAC	0.27
CTTTCCCC	0.0661
ACACAAAA	0.165
CCGTCAGA	-0.265
CCGCCGGC	-0.16
GCGTAGAA	-0.00954
CACGACCC	-0.115
CGTCTATA	0.104

Sequence	PBM E-score
ACAGTAGT	0.0709
AACCTAGT	-0.0172
ATTTTTAC	0.0674
ACTGTGTG	0.0391
CCCCAGGA	-0.28
GCTGATAC	0.0278
CCGTCGAC	-0.174
AATGACCG	0.0168
CTCGCGCA	0.03
ACACGCCT	-0.0337
AATGCGCG	0.178
GTGGTAGA	-0.143
ATCTGCTA	-0.105
ATACCCAA	0.185
GTCCCCAA	-0.196
GCAGGTAA	0.17
AATGGCAC	0.0457
ACGTTGAC	-0.0255
CAAGGCGG	-0.219
AGAAGCTA	-0.181
ACCTTAAG	-0.00128
CCCCGAAA	-0.0453
AATCGTCG	0.0821
ACGAAAGC	0.045
ATGAACCG	0.063

Some of the entries so far, with bars between the fields.
Sequence | PBM E-score
AATGCGCG | 0.178
GTGGTAGA | -0.143
ATCTGCTA | -0.105
ATACCCAA | 0.185
GTCCCCAA | -0.196

Some values from above:
Under PBM E-score, ACGAAAGC shows 0.045
Under PBM E-score, ATACCCAA shows 0.185
Under PBM E-score, AATGACCG shows 0.0168
Under PBM E-score, GCAGGTAA shows 0.17
Under PBM E-score, CCCCAGGA shows -0.28

(continued)

Sequence	PBM E-score
TAATCACA	0.154
GGACTCAC	-0.198
CCACAGAC	-0.129
ACCGGTGG	-0.288
CGACCCCC	-0.399
GAGGTCAC	-0.177
GCACTTCC	-0.0999
TAGGCAAA	-0.00875
AAAGGCGG	-0.0373
ATTCCCAC	0.0355
AATGAGGC	-0.149
GCAATCAC	-0.00269
ACCGATTA	0.179
AATAGGTC	0.0829
ACTCGCTA	0.0963
AATACCTG	0.06
CCTCCGAA	-0.202
GAACAGGC	-0.0897
CTGATTGA	0.0155
AATAGCGA	0.24
AAACCACT	0.0898
GCCCGGAC	-0.272
ACAGAACC	-0.119
TGTATAAA	0.211
AAACCCTC	-0.0466

Sequence	PBM E-score
AACGCTTG	-0.109
TATCAAGA	0.172
ACCTGATC	-0.142
ACTCGGAG	-0.129
CAGGCGCG	-0.0848
CCGCTCCG	-0.107
AACGATGA	0.0645
GTTTACGA	-0.0753
ACCCATAT	0.143
CGAGAGCG	-0.202
CAGCAACC	-0.0263
TACTATAA	0.266
ATGTACGC	0.0394
ACGATATG	0.0818
GCCCGCAC	0.0318
ACATTTAA	0.221
ACGAGAAC	0.118
CTCTTAAC	0.024
GCACGGTA	-0.18
CTGACTCC	-0.16
AAACTACA	0.189
CATCGAAC	0.0176
ACGGCAGA	0.122
ACTGATCG	0.00838
GCCTGGGA	-0.282

Sequence	PBM E-score
CGGGATAC	-0.013
ATAATGCG	0.182
GGCTCCCC	-0.361
AACTTAGT	0.0299
ATCATGTG	0.0322
AGTTCCTA	0.0691
ATACGAAC	0.189
GAGGGGGA	-0.233
AGCACCCA	-0.217
CTCCCAGA	-0.157
ACAGAAGC	0.154
GCCATGGC	-0.191
GAGAAGTA	0.0274
CGGGGAGC	-0.167
ATTGCACA	0.141
CGCACGAC	-0.0895
CGTCACAG	0.126
ATAAGCGA	0.122
ACGCACAC	0.0549
AGTGTGAT	0.15
CCGACAAC	-0.068
AATGAGAA	0.111
